PubChem BioAssay AID504834 (National Center for Advancing Translational Sciences (NCATS), 2011)
In all, about 320,000 compounds went through this assay and about 22,000 (6.9%) were called active. The inconclusive results got no clear call from the source; some entries with a clear call stand among them for comparison. Calls follow the shape of the dose curve; as a rule, active = well fitted inhibition curve with a large enough effect; inconclusive = small, poorly fitted or top-dose-only effect, or another doubt; inactive = no such curve, though single readings can be large or run the other way. A potency beside an inconclusive call is a rough fit, not a confirmed value.
% is scaled to controls: 0 for no effect and ±100 for the full control effect; potency is read from the fitted curve at half-maximal effect.

Test: Primary qHTS for delayed death inhibitors of the malarial parasite plastid, 96 hour incubation
Settings: P. falciparum luciferase reporter growth; series mostly up to 28.7 µM; activity change, negative = inhibition: at the top concentration
Summary of the method: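 Readout is luminescence from an integrated firefly luciferase in P. falciparum. Red cells, 2% hematocrit and 0.05% parasitemia final, were cultured with compound through two parasite generations (96 hours) at 37 C, 5% CO2.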
In the case of Cn1c(=O)oc2cc(S(=O)(=O)N3CCN(c4ccccn4)CC3)ccc21, the Potency is reported as inconclusive: 4.15 µM [inhibitor, single point]. For CC(=O)N1c2ccc(S(=O)(=O)N3CCCCC3)cc2CC1C(=O)NCc1ccccc1C (configuration not stated), the Potency was inconclusive: 11.7 µM [inhibitor, single point]. In the case of Cc1ccc(-c2nc3ncccc3o2)cc1NC(=O)Cc1ccc(Cl)cc1, the “activity change, negative = inhibition” value is reported as inactive: -16%. With CCS(=O)(=O)N1CCN(S(=O)(=O)c2ccc3c(c2)OCCO3)CC1 the Potency was inconclusive: 10.4 µM [inhibitor, partial curve]. In the case of CCCCC(=O)Nc1c(C)cc(C)cc1Cl, the “activity change, negative = inhibition” value is reported as inactive: -2.8%. For COc1ccc(N(CC(=O)Nc2ccccc2C(=O)N2CCOCC2)S(=O)(=O)c2ccc(F)cc2)cc1, the Potency was active: 10.4 µM. For O=C(NCCNC(=O)c1ccccc1O)c1ccccc1O, the Potency was inconclusive: 20.8 µM [inhibitor, single point]. For O=C(c1cc(-c2ccco2)on1)N1CCN(C(c2ccccc2)c2ccccc2)CC1, the “activity change, negative = inhibition” value was inactive: 24.7%. With COc1cccc(CN(C)C(=O)CCN(c2ccccc2)S(=O)(=O)c2ccc(C)cc2)c1OC the Potency was inconclusive: 11.7 µM [inhibitor, partial curve]. For Cn1c2ccccc2n2c(=O)c(=O)n(CC(=O)c3ccc(F)cc3)nc12, the Potency was inconclusive: 0.465 µM [inhibitor, full curve, poor fit]. In the case of CC1Cc2ccccc2N1C(=O)COC(=O)C1(c2ccccc2F)CCCC1 (configuration not stated), the Potency is reported as inconclusive: 10.4 µM [inhibitor, single point]. With OCCNc1cc(-n2nc(-c3ccccc3)cc2-c2ccccc2)ncn1 the Potency was inconclusive: 18.5 µM [inhibitor, single point]. With Cc1ccc(S(=O)(=O)NCCc2nnc3ccc(NCCCOC(C)C)nn23)cc1 the Potency was inconclusive: 18.5 µM [inhibitor, single point]. With Cn1cc(/C=C/C(=O)c2ccccc2)c2ccccc21 the “activity change, negative = inhibition” value was inactive: 34.7%. In the case of COc1cccc(CC(=O)NC2CCCN(Cc3ccccc3F)C2)c1 (configuration not stated), the Potency is reported as inconclusive: 18.5 µM [inhibitor, single point]. With O=C(CSc1nc2ccccc2n1CC(=O)N1CCOCC1)N1CCCC1 the Potency was inconclusive: 18.5 µM [inhibitor, single point]. With Cc1nc2ccccn2c1C(=O)CSc1cccc(Cl)c1 the Potency was inconclusive: 1.17 µM [inhibitor, partial curve, poor fit]. For Cc1cc2cc(CN(Cc3cccs3)C(=S)NCC3CCCO3)c(=O)[nH]c2cc1C (configuration not stated), the Potency was inconclusive: 14.7 µM [inhibitor, single point]. For CC(C)(C)N1C(=O)Cc2c1nc(N)c1c(N)nc(N3CCCCC3CO)c(C#N)c21 (configuration not stated), the Potency was active: 5.86 µM. In the case of CC(C)CCOC(=O)C1C(c2ccccc2)C(C(=O)O)C1c1ccccc1 (configuration not stated), the Potency is reported as inconclusive: 18.5 µM [inhibitor, single point]. In the case of Cc1cc(Br)c2[nH]cc(CCNC(=O)c3ccco3)c2c1, the Potency is reported as inconclusive: 9.28 µM [inhibitor, partial curve, poor fit]. In the case of CC1=NOC2(C1)/C(=N/O)CCC/C2=N\O (configuration not stated), the Potency is reported as inconclusive: 18.5 µM [inhibitor, single point]. For Cc1ccc(C)c(S(=O)(=O)N2CCN(C(=O)CSC(=S)N3CCCC3)CC2)c1, the Potency was inconclusive: 18.5 µM [inhibitor, partial curve, poor fit]. In the case of CCOc1ccc(-c2nc(N)ncc2Oc2cccc(OC)c2)c(O)c1, the Potency is reported as inconclusive: 18.5 µM [inhibitor, single point]. In the case of O=C(Nc1ccccc1Cl)C1Cc2ccccc2O/C1=N\O (configuration not stated), the Potency is reported as inconclusive: 10.4 µM [inhibitor, single point]. In the case of O=C(O)c1ccc(N2C(=O)CC(SC(=NCc3ccc4c(c3)OCO4)Nc3ccccc3)C2=O)cc1 (configuration not stated), the Potency is reported as inconclusive: 18.5 µM [inhibitor, single point]. For O=c1[nH]c(SCc2ccccc2)nnc1-c1ccccc1, the Potency was inconclusive: 2.33 µM [inhibitor, single point]. In the case of COc1ccc(/C=C(\C#N)C(=O)OCC(=O)N2CC(C)OC(C)C2)cc1 (configuration not stated), the “activity change, negative = inhibition” value is reported as inactive: 42.2%. In the case of COc1cc(C(=O)NCCCc2ccccc2)cc(OC)c1OC, the “activity change, negative = inhibition” value is reported as inactive: -27.5%. With COc1cc(C)nc(NCc2ccccc2)n1 the Potency was inconclusive: 18.5 µM [inhibitor, single point]. In the case of C=CCN(CC=C)CC(=O)Nc1ccc(S(N)(=O)=O)cc1, the Potency is reported as inconclusive: 2.94 µM [inhibitor, partial curve, poor fit]. For COC(=O)c1sc(N2C(=O)C(O)=C(C(=O)c3ccc(C)o3)C2c2ccc(OC)c(OC)c2)nc1C (configuration not stated), the “activity change, negative = inhibition” value was inactive: -13.6%. For Cc1occc1C(=O)NCc1ccc2c(c1)OCO2, the “activity change, negative = inhibition” value was inactive: 0%. In the case of COC(=O)c1cc(NC(=O)CC2NCCNC2=O)cc(C(=O)OC)c1 (configuration not stated), the Potency is reported as inconclusive: 9.28 µM [inhibitor, single point]. In the case of Cc1ccc(C)c(-c2nnc(NC(=O)Cc3ccccc3)o2)c1, the Potency is reported as inconclusive: 18.5 µM [inhibitor, single point]. With COc1ccc(C(C)=O)cc1CC(=O)Nc1ccc2c(c1)CCC2 the Potency was inconclusive: 9.28 µM [inhibitor, single point]. In the case of COc1cccc(-c2nnc3sc(-c4cccs4)nn23)c1, the Potency is reported as inconclusive: 18.5 µM [inhibitor, single point]. For CCC(C)NS(=O)(=O)c1ccc(NC(=O)c2ccc([N+](=O)[O-])cc2Cl)cc1 (configuration not stated), the Potency was inconclusive: 11.7 µM [inhibitor, single point]. In the case of O=S(=O)(c1cc(Cl)ccc1Cl)N1CCN(Cc2ccc3c(c2)OCO3)CC1, the Potency is reported as active: 10.4 µM. For COc1ccc(-c2cn3c(C)c(C(=O)Nc4cccc(NC(C)=O)c4)sc3n2)cc1, the Potency was inconclusive: 1.04 µM [inhibitor, full curve, poor fit]. With COc1cccc(CN(C)C(=O)[C@@H](NC(=O)c2ccc(C)cc2)C(C)C)c1 the “activity change, negative = inhibition” value was inactive: -14.7%. For COc1cc(C)c(/C=C/C(C)=C/C=C/C(C)=C/C(=O)O)c(C)c1C, the “activity change, negative = inhibition” value was inactive: -2.79%. With CCOC(=O)C1CCCN(C(=O)c2cc(S(=O)(=O)Nc3ccccc3OC)ccc2C)C1 (configuration not stated) the Potency was inconclusive: 11.7 µM [inhibitor, single point]. With COc1ccc(CN2CCNC(=O)C2CC(=O)N(C)Cc2nc(C)cs2)c(OC)c1 (configuration not stated) the Potency was inconclusive: 5.86 µM [inhibitor, partial curve, poor fit]. With CCC(C(=O)OC)n1cnc2scc(-c3ccc(C)cc3)c2c1=O (configuration not stated) the Potency was inconclusive: 18.5 µM [inhibitor, single point]. In the case of CCOCCCn1c(=S)[nH]c2cc(C(=O)NCCCN(CC)CC)ccc2c1=O, the Potency is reported as inconclusive: 18.5 µM [inhibitor, single point]. With COc1cc(Cl)ccc1OCc1cc(C(=O)N(C)CC2CCCCO2)no1 (configuration not stated) the Potency was inconclusive: 16.5 µM [inhibitor, single point]. In the case of CC(C(=O)NCc1ccco1)n1ccc2cc(S(=O)(=O)N3CCCCC3)ccc21 (configuration not stated), the Potency is reported as inconclusive: 10.4 µM [inhibitor, partial curve]. With COc1cc(C(=O)Nc2ccc(NC(=O)c3cccc(Cl)c3)nc2)cc(OC)c1OC the “activity change, negative = inhibition” value was inactive: 74%. In the case of CC(C)c1nnc(NC(=O)C2CCCN2C(=O)Nc2ccc(F)cc2)s1 (configuration not stated), the Potency is reported as inconclusive: 0.828 µM [inhibitor, full curve]. With CC(C)c1ccc(NC(=O)CNCC(c2ccccc2)N(C)C)cc1 (configuration not stated) the Potency was inconclusive: 18.5 µM [inhibitor, partial curve, poor fit]. In the case of COc1cc(NC(=O)C2CCCN2S(=O)(=O)c2ccc3c(c2)CC(C)N3C(C)=O)cc(OC)c1 (configuration not stated), the Potency is reported as inconclusive: 18.5 µM [inhibitor, single point]. With C[n+]1cccc(C(=O)[O-])c1 the “activity change, negative = inhibition” value was inactive: -1.36%. In the case of CCC1CCCCN1CCCNC(=O)c1ccc(CS(=O)(=O)Cc2ccc(Cl)cc2)o1 (configuration not stated), the Potency is reported as inconclusive: 18.5 µM [inhibitor, single point]. With COc1ccc(C2NC(c3ccc(OC)cc3)C(c3ccccc3)C(=O)C2c2ccccc2)cc1 (configuration not stated) the Potency was active: 10.4 µM. In the case of N/C(CCS(=O)(=O)c1ccc(Cl)cc1)=N\OC(=O)c1ccccc1Cl, the Potency is reported as inconclusive: 18.5 µM [inhibitor, single point]. For CCS(=O)(=O)c1nc(S(=O)(=O)c2ccc(C)cc2)c(N2CCC3(CC2)OCCO3)s1, the “activity change, negative = inhibition” value was inactive: 31.1%. In the case of CCC(C)[C@H](NC(=O)N1CC(=O)Nc2ccccc21)C(=O)Nc1ccccc1C (some centres not stated), the Potency is reported as inconclusive: 9.28 µM [inhibitor, single point]. In the case of CN(Cc1ccc(Cl)cc1Cl)C(=O)CCNC(=O)c1ccco1, the Potency is reported as inconclusive: 18.5 µM [inhibitor, partial curve, poor fit]. With O=[N+]([O-])c1ccc(N=Nc2c(Cl)cc(O)cc2Cl)cc1 the Potency was inconclusive: 4.65 µM [inhibitor, single point]. For COc1ccc(-c2[nH]ncc2CN(C)CCN2CCOCC2)cc1F, the Potency was inconclusive: 18.5 µM [inhibitor, single point]. With COC(=O)c1ccc(C2C(C(C)=O)=C(C)Nc3ncnn32)cc1 (configuration not stated) the Potency was inconclusive: 18.5 µM [inhibitor, single point]. In the case of Cc1nc([N+](=O)[O-])c(Sc2nc3ccccc3[nH]2)n1Cc1ccccc1, the Potency is reported as active: 4.15 µM. For O=C(N/N=C/c1ccccc1O)C(=O)Nc1ccccn1, the Potency was inconclusive: 18.5 µM [inhibitor, single point]. With CC1=NN(C(N)=S)C(=O)C1N=Nc1cccc2ccccc12 (configuration not stated) the “activity change, negative = inhibition” value was inactive: -5.07%. For Cc1ccccc1NC(=S)NC(NC(=O)C(C)(C)C)C(Cl)(Cl)Cl (configuration not stated), the Potency was inconclusive: 18.5 µM [inhibitor, single point]. In the case of CC(C)CC(NC(N)=O)C(=O)Nc1ccc2c(c1)OCO2 (configuration not stated), the Potency is reported as inconclusive: 10.4 µM [inhibitor, single point].
